# Assay results from the supplement of paper PMC8616043.
# Where a name gives a salt, the structure may show the parent alone. Some of the results follow. Repeats in this data set agree poorly, so a single value says little.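 The cells are human U-2 OS cells that stably carry a GFP sensor with a nuclear import signal and a classical export signal. They were transfected to make PR50, a 50-repeat proline–arginine dipeptide protein from the ALS/FTD gene C9ORF72. Each well's nuclear-minus-cytoplasm GFP signal was scaled from in-plate DMSO (low) to PR-only wells (high), then scored against the other test wells on the plate; compounds scoring well below zero were called hits that reverse the PR effect.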
# Test system: U-2 OS NCT-C biosensor cells expressing PR50
# Assay: Z-score of normalised NCT-C biosensor translocation index in PR50-expressing cells; higher = more nuclear biosensor (more disrupted nuclear export)
# Conditions: 3 µM; 24 h
row,Compound,Z-score
1,OC[C@H]1O[C@@H](n2cnc3c(NC4CCCC4)ncnc32)[C@H](O)[C@@H]1O [N6-  Cyclopentyladeno sine],inactive: -0.439
2,C[N+](C)(C)CC=O [Betaine aldehyde chloride],inactive: 2.61
3,O[C@H]1CCN2Cc3ccccc3N=C12 [Vasicine],inactive: 0.327
4,O=C(O)c1cn(C2CC2)c2cc(N3CCNCC3)c(F)cc2c1=O [Ciprofloxacin],inactive: 0.332
5,CC1=CC(=O)C(C(C)C)=CC1=O [Thymoquinone],inactive: -0.731
6,O=C(/C=C/c1ccc(O)cc1)CC(=O)/C=C/c1ccc(O)cc1 [Bis demethoxycurcumin],inactive: 1.68
7,COc1ccccc1Oc1c(NS(=O)(=O)c2ccc(C(C)(C)C)cc2)nc(-c2ncccn2)nc1OCCO [Bosentan],inactive: 0.929
8,O=C(O)Cc1c[nH]c2ccccc12 [Indole-3-acetic acid],inactive: -0.413
9,CN(C)CCC=C1c2ccccc2COc2ccccc21 [Doxepin·HCl],inactive: -0.401
10,CN(C)CCC=C1c2ccccc2COc2ccccc21 [Doxepin hydrochloride],inactive: -0.132
11,CC(C)[N+](C)(CCOC(=O)C1c2ccccc2Oc2ccccc21)C(C)C [Propantheline bromide],inactive: 0.751
12,CCN(c1nc(N)c(C(=O)NC(=N)N)nc1Cl)C(C)C [5-(N-Ethyl-N- isopropyl) amiloride],inactive: 0.303
13,O=C(O)Cc1c[nH]c2ccc(O)cc12 [5-Hydroxyindol acetic acid],inactive: 0.219
14,"CCN(CC)CCOC(=O)c1cc(Cl)c(N)cc1OC [SDZ-205,557  hydrochloride]",inactive: -1.05
15,NC/C=C/C(=O)O [(E)-4-amino-2-butenoic acid],inactive: -0.878
16,CC(=O)N[C@@H](Cc1c[nH]c2ccccc12)C(=O)OCc1cc(C(F)(F)F)cc(C(F)(F)F)c1,inactive: 0.169
17,O=C(N[C@H](CO)[C@H](O)c1ccc([N+](=O)[O-])cc1)C(Cl)Cl [Chloramphenicol],inactive: 0.74
18,CCC[C@@H]1C[C@@H](C(=O)N[C@@H]([C@H]2O[C@H](SC)[C@H](O)[C@@H](O)[C@H]2O)[C@H](C)Cl)N(C)C1 [Clindamycin·HCl],inactive: 2.69
19,Cn1cnc2c1c(=O)[nH]c(=O)n2C [Theobromine],inactive: -0.565
20,CCN(CC)CCNC(=O)c1cc(Cl)c(N)cc1OC [Metoclopramide·HCl],inactive: -0.349
21,CCN(CC)CCNC(=O)c1cc(Cl)c(N)cc1OC [Metoclopramide hydrochloride],inactive: -0.636
22,NCCCNCCCCNCCCN [Spermine tetrahydrochloride],inactive: -0.329

row,Compound,Z-score
1,CN(C)C/C=C(/c1ccc(Br)cc1)c1cccnc1 [Zimelidine dihydrochloride],inactive: 0.181
2,COc1ccc(O)cc1 [Mequinol],inactive: 0.474
3,Cc1c(-c2ccccc2)oc2c(C(=O)OCCN3CCCCC3)cccc2c1=O [Flavoxate·HCl],inactive: 2
4,C[C@@H]1NC(=O)[C@@H](N)CNC(=O)[C@H](C2CCNC(=N)N2)NC(=O)/C(=C/NC(N)=O)NC(=O)[C@H](CNC(=O)CC(N)CCCN)NC1=O.N=C1NCC[C@H]([C@@H]2NC(=O)/C(=C/NC(N)=O)NC(=O)[C@H](CNC(=O)C[C@@H](N)CCCN)NC(=O)[C@H](CO)NC(=O)[C@@H](N)CNC2=O)N1 [Capreomycin Disulfate],inactive: 0.0357
5,C[C@@H]1NC(=O)[C@@H](N)CNC(=O)[C@H](C2CCNC(=N)N2)NC(=O)/C(=C/NC(N)=O)NC(=O)[C@H](CNC(=O)CC(N)CCCN)NC1=O.N=C1NCC[C@H]([C@@H]2NC(=O)/C(=C/NC(N)=O)NC(=O)[C@H](CNC(=O)C[C@@H](N)CCCN)NC(=O)[C@H](CO)NC(=O)[C@@H](N)CNC2=O)N1 [Capreomycin],inactive: 0.805
6,CC1(C)O[C@H]2CC(=O)OC[C@]23[C@H]2CC[C@@]4(C)[C@H](c5ccoc5)OC(=O)[C@H]5O[C@]54[C@]2(C)C(=O)C[C@@H]13 [Limonin],inactive: -0.706
7,OC[C@H]1NC[C@H](O)[C@@H](O)[C@@H]1O [1-Deoxynojirimycin hydrochloride],inactive: -0.557
8,Cc1cc(C)c(CNC(=O)c2cc(-c3ccc(CN4CCOCC4)cc3)cc3c2cnn3C2CCCC2)c(=O)[nH]1,inactive: -1.91
9,"Cn1c(=O)c2[nH]c(-c3ccccc3)nc2n(C)c1=O [1,3-Dimethyl-8-phenylxanthine]",inactive: -0.48
10,CC(C)Nc1cccnc1N1CCN(C(=O)c2cc3cc(NS(C)(=O)=O)ccc3[nH]2)CC1 [Delavirdine Mesylate],inactive: 0.895
11,Cc1onc(-c2ccccc2Cl)c1C(=O)N[C@@H]1C(=O)N2[C@@H]1SC(C)(C)[C@@H]2C(=O)O [Cloxacillin·Na],inactive: -0.0263
12,COc1ccc(Cn2ccc3ccc(C(=O)NO)cc32)cc1,inactive: -1.5
13,C#Cc1cccc(Nc2ncnc3cc(OCCOC)c(OCCOC)cc23)c1 [Erlotinib],inactive: -0.299
14,CN[C@H](CC(=O)O)C(=O)O [N-Methyl-D- aspartic acid],inactive: 0.141
15,O=C1C[C@@H](c2ccc(O)c(O)c2)Oc2cc(O)cc(O)c21 [Eriodictyol],inactive: -0.58
16,CN[C@@H]1[C@H](O)[C@H](NC)[C@H]2O[C@@]3(O)C(=O)C[C@@H](C)O[C@H]3O[C@@H]2[C@H]1O [Spectinomycin],inactive: -0.624
17,CN[C@@H]1[C@H](O)[C@H](NC)[C@H]2O[C@@]3(O)C(=O)C[C@@H](C)O[C@H]3O[C@@H]2[C@H]1O [Spectinomycin·2HCl Pentahydrate],inactive: 0.128
18,O=C1NC(=O)C(Cc2ccc3cc(OCc4ccccc4F)ccc3c2)S1 (stereo unspecified),inactive: 0.35
19,NC(N)=NC(N)=Nc1cccc(Cl)c1 [1-(m-Chlorophenyl)-biguanide hydrochloride],inactive: -1.17
20,CC(C(=O)O)c1ccc(-c2ccccc2)c(F)c1 (stereo unspecified) [Flurbiprofen],inactive: 0.71
21,NC(=O)c1cn(Cc2c(F)cccc2F)nn1 [Rufinamide],inactive: 0.0205
22,Cc1ccccc1C(=O)Nc1ccc(C(=O)N2CCCC(O)c3cc(Cl)ccc32)c(C)c1 (stereo unspecified) [Tolvaptan],inactive: -0.62

# Another view of some results above:
row	Compound	Z-score
4	C[C@@H]1NC(=O)[C@@H](N)CNC(=O)[C@H](C2CCNC(=N)N2)NC(=O)/C(=C/NC(N)=O)NC(=O)[C@H](CNC(=O)CC(N)CCCN)NC1=O.N=C1NCC[C@H]([C@@H]2NC(=O)/C(=C/NC(N)=O)NC(=O)[C@H](CNC(=O)C[C@@H](N)CCCN)NC(=O)[C@H](CO)NC(=O)[C@@H](N)CNC2=O)N1 [Capreomycin Disulfate]	inactive: 0.0357
5	C[C@@H]1NC(=O)[C@@H](N)CNC(=O)[C@H](C2CCNC(=N)N2)NC(=O)/C(=C/NC(N)=O)NC(=O)[C@H](CNC(=O)CC(N)CCCN)NC1=O.N=C1NCC[C@H]([C@@H]2NC(=O)/C(=C/NC(N)=O)NC(=O)[C@H](CNC(=O)C[C@@H](N)CCCN)NC(=O)[C@H](CO)NC(=O)[C@@H](N)CNC2=O)N1 [Capreomycin]	inactive: 0.805
6	CC1(C)O[C@H]2CC(=O)OC[C@]23[C@H]2CC[C@@]4(C)[C@H](c5ccoc5)OC(=O)[C@H]5O[C@]54[C@]2(C)C(=O)C[C@@H]13 [Limonin]	inactive: -0.706
7	OC[C@H]1NC[C@H](O)[C@@H](O)[C@@H]1O [1-Deoxynojirimycin hydrochloride]	inactive: -0.557
8	Cc1cc(C)c(CNC(=O)c2cc(-c3ccc(CN4CCOCC4)cc3)cc3c2cnn3C2CCCC2)c(=O)[nH]1	inactive: -1.91
9	Cn1c(=O)c2[nH]c(-c3ccccc3)nc2n(C)c1=O [1,3-Dimethyl-8-phenylxanthine]	inactive: -0.48
10	CC(C)Nc1cccnc1N1CCN(C(=O)c2cc3cc(NS(C)(=O)=O)ccc3[nH]2)CC1 [Delavirdine Mesylate]	inactive: 0.895
11	Cc1onc(-c2ccccc2Cl)c1C(=O)N[C@@H]1C(=O)N2[C@@H]1SC(C)(C)[C@@H]2C(=O)O [Cloxacillin·Na]	inactive: -0.0263
12	COc1ccc(Cn2ccc3ccc(C(=O)NO)cc32)cc1	inactive: -1.5
13	C#Cc1cccc(Nc2ncnc3cc(OCCOC)c(OCCOC)cc23)c1 [Erlotinib]	inactive: -0.299
14	CN[C@H](CC(=O)O)C(=O)O [N-Methyl-D- aspartic acid]	inactive: 0.141
15	O=C1C[C@@H](c2ccc(O)c(O)c2)Oc2cc(O)cc(O)c21 [Eriodictyol]	inactive: -0.58
16	CN[C@@H]1[C@H](O)[C@H](NC)[C@H]2O[C@@]3(O)C(=O)C[C@@H](C)O[C@H]3O[C@@H]2[C@H]1O [Spectinomycin]	inactive: -0.624
17	CN[C@@H]1[C@H](O)[C@H](NC)[C@H]2O[C@@]3(O)C(=O)C[C@@H](C)O[C@H]3O[C@@H]2[C@H]1O [Spectinomycin·2HCl Pentahydrate]	inactive: 0.128
18	O=C1NC(=O)C(Cc2ccc3cc(OCc4ccccc4F)ccc3c2)S1 (stereo unspecified)	inactive: 0.35
19	NC(N)=NC(N)=Nc1cccc(Cl)c1 [1-(m-Chlorophenyl)-biguanide hydrochloride]	inactive: -1.17

# More records

row,Compound,Z-score
1,CC[N+](CC)(CC)CCOc1ccc(/C=C/c2ccccc2)cc1,inactive: -0.683
2,CC(=O)O[C@H]1CC[C@@]2(C)C(=CC[C@@H]3[C@@H]2CC[C@]2(C)C(c4cccnc4)=CC[C@@H]32)C1 [Abiraterone acetate],inactive: -0.959
3,Nc1nc2[nH]cnc2c(=S)[nH]1 [Thioguanine (6-Thioguanine)],inactive: -0.149
4,O=C(Nc1cccc(C(F)(F)F)c1)Nc1cc(S(=O)(=O)NC2CC2)ccc1-c1ccsc1,inactive: -1.13
5,Cc1cccc(C)c1NC(=O)C(C)N (stereo unspecified) [Tocainide hydrochloride],inactive: -0.199
6,CC(=O)Nc1ccc(C(=O)Nc2ccc(F)cc2N)cc1,inactive: -0.885
7,Oc1c(Cl)cc(Cl)c(Cl)c1Cc1c(O)c(Cl)cc(Cl)c1Cl [Hexachlorophene],inactive: 0.894
8,"CCCc1c(-c2ccc(O)cc2)nn(-c2ccc(O)cc2)c1-c1ccc(O)cc1 [1,3,5-tris(4- hydroxyphenyl)-4- propyl-1H- pyrazole]",inactive: -0.918
9,CC1=CC[C@@]2(C)CC[C@@](O)(C(C)C)[C@@H]2[C@@H](OC(=O)c2ccc(O)cc2)C1 [Ferutinin],inactive: 0.0222
10,CCCCC[C@H](O)/C=C/C1=C(CCCCCCC(=O)O)C(=O)CC1 [Prostaglandin B1],inactive: -0.974
11,C=C1C(=O)[C@]23[C@H](O)[C@H]1CC[C@H]2[C@@]12CO[C@]3(O)[C@@H](O)[C@@H]1C(C)(C)CC[C@@H]2O [Oridonin],inactive: 2.13
12,Oc1ccc(/C=C/c2cc(O)cc(O)c2)cc1 [Resveratrol],inactive: -1.25
13,CCN(CC)Cc1ccc(C(=O)N(CCc2ccccc2OC)[C@@H]2CCNC2)cc1,inactive: 0.731
14,CCOC(=O)C1=C(COCCN)NC(C)=C(C(=O)OC)C1c1ccccc1Cl (stereo unspecified) [Amlodipine],inactive: -0.103
15,COc1ccc(/C=C/C(=O)Nc2ccccc2C(=O)O)cc1OC [Tranilast],inactive: -0.267
16,CCN(CC)CCNC(=O)c1c(C)[nH]c(/C=C2\C(=O)Nc3ccc(F)cc32)c1C [Sunitinib Malate],inactive: -0.752
17,Cc1cccc(C)c1OCC(C)N (stereo unspecified) [Mexiletine hydrochloride],inactive: 0.236
18,Cc1cccc(C)c1OCC(C)N (stereo unspecified) [Mexiletine·HCl],inactive: -0.438
19,O=C(Nc1ccc(Oc2ccc(Cl)cn2)c(Cl)c1)c1ccccn1,inactive: -1.13
20,COc1ccccc1N1CCN(CCCCN2C(=O)c3ccccc3C2=O)CC1 [NAN-190 hydrobromide],inactive: 0.949
21,CC[C@]1(O)C[C@H]2CN(CCc3c([nH]c4ccccc34)[C@@](C(=O)OC)(c3cc4c(cc3OC)N(C=O)[C@H]3[C@@](O)(C(=O)OC)[C@H](OC(C)=O)[C@]5(CC)C=CCN6CC[C@]43[C@@H]65)C2)C1 [Vincristine sulfate salt],inactive: 1.09
22,CC[C@]1(O)C[C@H]2CN(CCc3c([nH]c4ccccc34)[C@@](C(=O)OC)(c3cc4c(cc3OC)N(C=O)[C@H]3[C@@](O)(C(=O)OC)[C@H](OC(C)=O)[C@]5(CC)C=CCN6CC[C@]43[C@@H]65)C2)C1 [Vincristine Sulfate],inactive: 0.971
